Earlier results in patent publication US20240261306A1, “FORMULATIONS OF PSILOCYBIN” (CYBIN IRL LIMITED, priority 2021, published 2024).
For at least one compound, name, drawing or mass did not settle the structure.

Key:
[1] = background statement; patient; cited from earlier work
[2] = reported by Greenan et al.; cited from earlier work

Compound: CN(C)CCc1c[nH]c2cccc(OP(=O)(O)O)c12 [Example I-7, 3-(2-(dimethylamino)ethyl)-1H-indol-4-yl dihydrogen phosphate]
- duration of drug action [1]: 2 to 3 h
- onset of drug action [1]: 1.5 to 2 h
- Tg (midpoint) [2]: 163 °C
